Test results reported in paper doi:10.1101/2020.09.09.289967.
No constants are given. Whether binding was seen depends on the method and setting. Binding can be weak; no strength is given. For some assays here: Binding seen in cells or lysates may run through a third protein. For some assays here: Sequences can lack the tags named with a protein. Blank lines part the entries; values can stand above or below the binder they belong to.

Key:
[1] = target: Arabidopsis thaliana purple acid phosphatase 2 (Arabidopsis thaliana); experiment: two-hybrid
[2] = target: Arabidopsis thaliana purple acid phosphatase 2 (BiFC fusion) (Arabidopsis thaliana); experiment: split reporter

B1: FTRB (protein, UniProt Q9SJ89 1-146)
chain: MNLQAVSCSFGFLSSPLGVTPRTSFRRFVIRAKTEPSEKSVEIMRKFSEQYARRSGTYFCVDKGVTSVVIKGLAEHKDSYGAPLCPCRHYDDKAAEVGQGFWNCPCVPMRERKECHCMLFLTPDNDFAGKDQTITSDEIKETTANM
binding [1]: binds

B2: FTRA1 (protein, UniProt Q9FHL4 1-182)
chain: MSSQIALSPAIAAAIRRPSSHDCLSASATTATATPMALKSCIVAPLSLFTSQSQIKHSSSRKTSRTTIRCDVAIKSADSINADANPSSSPSSEEEIEAEAKAKIGSRVRVTAPLKVYHVNRVPEVDLEGMEGKLKDYVAVWKGKRISANLPYKIEFFKEIEGRGLVKFVSHLKEDEFEFIDQ
binding [1]: no binding

B5: ferredoxin/thioredoxin reductase subunit A2 (protein, UniProt Q8LBP6 1-184)
chain: MTNSYALSPAIIAAVRPPASQDYLVAASLSGRKSINSSSSSIFVPISLSTSYGRSKCAFSISRKNPKSTIRCDIAVKSAASVDADADLSSSTSLETEEDEKAKEKIGARVRVTVPLKVYHVVRVPEVELMGMEGFIKDYVVLWKGKKISANLPFKVQFVKEIEGRGPVKFFTHLKEDEFELIDP
binding [1]: binds

Next, values leading:

binding [2]: binds
B3: ferredoxin/thioredoxin reductase subunit A2 (BiFC fusion) (protein, UniProt Q8LBP6 72-184)
chain: CDIAVKSAASVDADADLSSSTSLETEEDEKAKEKIGARVRVTVPLKVYHVVRVPEVELMGMEGFIKDYVVLWKGKKISANLPFKVQFVKEIEGRGPVKFFTHLKEDEFELIDP

binding [2]: binds
B4: FTRB (BiFC fusion) (protein, UniProt Q9SJ89 32-146)
chain: AKTEPSEKSVEIMRKFSEQYARRSGTYFCVDKGVTSVVIKGLAEHKDSYGAPLCPCRHYDDKAAEVGQGFWNCPCVPMRERKECHCMLFLTPDNDFAGKDQTITSDEIKETTANM
